## Results from one PubChem assay

Source: PubChem BioAssay AID1224904 (Broad Institute, 2016).

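Selective DUX4 reporter inhibition in doxycycline-induced 293T-iDUX4 cells, scored as Gaussia percent activity minus Italica percent activity, after a 24-hour treatment. The test concentration is not given here. Percent difference between the Gaussia and Italica channels; more negative values mean more selective suppression of the DUX4 reporter, and higher values mean less activity.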

Values are in %. How 0% and 100% were set is not given here. Common to all entries: measured here: selective DUX4 reporter inhibition. This is a side read-out of the assay, for part of the compounds, not drawn at random.

{"smiles": "O=S(=O)(c1ccccc1F)N1CC[C@@H]2[C@@H](CO)Nc3ccc(-c4ccc(F)cc4)cc3[C@@H]21", "Gaussia minus Italica difference (%)": "7.562"}
{"smiles": "COc1ccc2c3c([nH]c2c1)[C@H](CO)N(C(=O)c1ccccc1)CC31CCN(C)CC1", "Gaussia minus Italica difference (%)": "0.983"}
{"smiles": "CCc1nc(N2[C@H](CO)[C@@H](c3ccccc3-c3ccc(F)cc3)[C@@H]2C#N)sc1C", "Gaussia minus Italica difference (%)": "-2.63"}
{"smiles": "Cc1ccc(S(=O)(=O)N2CC[C@@H]3[C@H](CO)Nc4ccc(-c5ccccc5F)cc4[C@@H]32)cc1", "Gaussia minus Italica difference (%)": "6.807"}
{"smiles": "O=S(=O)(c1ccccc1F)N1C[C@@H]2N[C@H](C1)C2c1ccc(-c2cccnc2)cc1", "stereo": "some centres not stated", "Gaussia minus Italica difference (%)": "-20.23"}
{"smiles": "N#Cc1cccc(-c2ccc([C@@H]3[C@H](CO)N4CCCCN(C(=O)Nc5cccc(F)c5)C[C@@H]34)cc2)c1", "Gaussia minus Italica difference (%)": "-1.579"}
{"smiles": "COCC(=O)N1CCC2(CC1)CN(Cc1ccccc1Cl)[C@@H](CO)c1[nH]c3cc(OC)ccc3c12", "Gaussia minus Italica difference (%)": "-1.794"}
{"smiles": "CO[C@H]1CN(C)C(=O)c2cc(NC(=O)C3CC3)ccc2OC[C@H](C)N(Cc2cc(F)ccc2F)C[C@H]1C", "Gaussia minus Italica difference (%)": "-15.4"}
{"smiles": "C/C=C/c1ccc([C@@H]2[C@@H](CO)N3CCCCN(S(=O)(=O)c4ccc(OC)cc4)C[C@@H]23)cc1", "Gaussia minus Italica difference (%)": "-13.68"}
{"smiles": "O=C(NC1Cc2ccccc2C1)[C@@H]1[C@@H](CO)[C@@H]2Cn3c(ccc(C4=CCCCC4)c3=O)[C@H]1N2CC1CC1", "Gaussia minus Italica difference (%)": "-5.053"}
{"smiles": "C[C@H]1CN([C@@H](C)CO)C(=O)c2ccccc2-c2ccccc2CO[C@H]1CN(C)Cc1ccccc1C(F)(F)F", "Gaussia minus Italica difference (%)": "-19.38"}
{"smiles": "O=C(Nc1ccc(C(F)(F)F)cc1)N1C[C@@H]2N[C@H](C1)C2c1ccc(/C=C/c2ccccc2)cc1", "stereo": "some centres not stated", "Gaussia minus Italica difference (%)": "14.01"}
{"smiles": "N#Cc1ccc(-c2ccc3c(c2)[C@@H]2[C@@H](CCN2C(=O)C2CCCCC2)[C@@H](CO)N3)cc1", "Gaussia minus Italica difference (%)": "-22.86"}
{"smiles": "O=C(C[C@H]1CC[C@H]2[C@@H](COC[C@@H](O)CN2Cc2ccc3c(c2)OCO3)O1)Nc1ccc(-c2ccccc2)cc1", "Gaussia minus Italica difference (%)": "14.22"}
{"smiles": "C[C@@H]1CN([C@@H](C)CO)C(=O)c2c(c3ccccc3n2C)-c2ccccc2CO[C@@H]1CN(C)C(=O)Nc1ccnc(N2CCOCC2)c1", "Gaussia minus Italica difference (%)": "-6.8"}
{"smiles": "O=C(C1CCCC1)N1CC2(C1)[C@@H](c1ccccc1)[C@H](CO)N2Cc1ccc(Cl)cc1", "Gaussia minus Italica difference (%)": "-15.47"}
{"smiles": "COc1ccc2c3c([nH]c2c1)[C@@H](CO)N(C(=O)C1CCOCC1)CC31CCN(Cc2cccc(F)c2)CC1", "Gaussia minus Italica difference (%)": "28.46"}
{"smiles": "COc1cccc(C#Cc2ccc([C@@H]3[C@H](CO)N4C(=O)CN(C(=O)c5ccccc5)C[C@@H]34)cc2)c1", "Gaussia minus Italica difference (%)": "-8.76"}
{"smiles": "C[C@H](NC(=O)C[C@@H]1CC[C@H](NC(=O)Cc2ccccn2)[C@@H](CO)O1)c1ccccc1", "Gaussia minus Italica difference (%)": "-3.823"}
{"smiles": "C[C@@H]1CN([C@H](C)CO)C(=O)c2c(c3ccccc3n2C)-c2ccccc2CO[C@@H]1CN(C)C(=O)[C@H](Cc1ccccc1)N(C)C", "Gaussia minus Italica difference (%)": "11.85"}
{"smiles": "O=C(C[C@H]1CC[C@@H](NS(=O)(=O)c2ccc(F)cc2)[C@@H](CO)O1)N1CCN(c2ccccc2)CC1", "Gaussia minus Italica difference (%)": "-20.36"}
{"smiles": "CS(=O)(=O)N1CC(=O)N2[C@H](C1)[C@@H](c1ccc(C#CCc3ccccc3)cc1)[C@@H]2CO", "Gaussia minus Italica difference (%)": "-17.25"}
{"smiles": "CCCC#Cc1ccc([C@H]2[C@H](CO)N3C(=O)CN(C(=O)Nc4cc(F)ccc4F)C[C@@H]23)cc1", "Gaussia minus Italica difference (%)": "-18.49"}
{"smiles": "C[C@@H]1CN([C@H](C)CO)C(=O)c2c(c3ccccc3n2C)-c2ccccc2CO[C@@H]1CN(C)S(=O)(=O)c1cccc(F)c1", "Gaussia minus Italica difference (%)": "-17.54"}
{"smiles": "O=C(C[C@H]1CC[C@H]2[C@@H](COC[C@H](O)CN2Cc2ccc(C(F)(F)F)cc2)O1)N1CCc2ccccc2C1", "Gaussia minus Italica difference (%)": "-6.034"}
{"smiles": "O=C(Cc1ccccc1)N1CC[C@H]2[C@H](CO)Nc3ccc(-c4cccc(F)c4)cc3[C@H]21", "Gaussia minus Italica difference (%)": "-1.975"}
{"smiles": "O=C(C[C@H]1CC[C@H]2[C@@H](COC[C@H](O)CN2C(=O)Nc2ccc(Cl)c(Cl)c2)O1)NCc1ccc(F)cc1", "Gaussia minus Italica difference (%)": "-6.259"}
{"smiles": "CN(C)C(=O)c1cccc(-c2ccc3c(c2)[C@H]2[C@H](CCN2C(=O)Nc2cccc(F)c2)[C@@H](CO)N3C)c1", "Gaussia minus Italica difference (%)": "3.312"}
{"smiles": "COc1ccc(S(=O)(=O)N[C@@H]2C=C[C@H](CC(=O)N3CCC(Cc4ccccc4)CC3)O[C@@H]2CO)cc1", "Gaussia minus Italica difference (%)": "-17.55"}
{"smiles": "O=C(C[C@@H]1CC[C@H]2[C@@H](COC[C@@H](O)CN2CCc2ccccc2)O1)NCc1ccc(Oc2ccccc2)cc1", "Gaussia minus Italica difference (%)": "-15.21"}
{"smiles": "O=C(c1ccc(F)cc1)N1CC[C@@H]2[C@@H](CO)Nc3ccc(-c4ccccc4F)cc3[C@@H]21", "Gaussia minus Italica difference (%)": "-16.36"}
{"smiles": "N#C[C@@H]1[C@@H](c2ccc(-c3ccccc3)cc2)[C@H](CO)N1C(=O)Cc1ccccc1", "Gaussia minus Italica difference (%)": "2.246"}
{"smiles": "O=C(C[C@@H]1CC[C@H]2[C@@H](COC[C@@H](O)CN2C(=O)c2ccccc2F)O1)NCc1ccc(Cl)cc1", "Gaussia minus Italica difference (%)": "-2.256"}
{"smiles": "COc1cccc(NC(=O)N(C)C[C@@H]2OCc3ccccc3-c3c(n(C)c4ccccc34)C(=O)N([C@@H](C)CO)C[C@@H]2C)c1", "Gaussia minus Italica difference (%)": "7.435"}
{"smiles": "C[C@H](CO)N1C[C@H](C)[C@H](CN(C)Cc2cccc3c2OCCCO3)OCc2ccccc2-c2c(n(C)c3ccccc23)C1=O", "Gaussia minus Italica difference (%)": "-14.15"}
{"smiles": "COc1ccc2c3c([nH]c2c1)[C@@H](CO)N(Cc1cccc(Cl)c1)CC31CN(C(C)=O)C1", "Gaussia minus Italica difference (%)": "2.204"}
{"smiles": "O=C(c1ccc2c(c1)OCO2)N1CC2(C1)[C@H](c1ccccc1)[C@H](CO)N2C(=O)C1CCC1", "Gaussia minus Italica difference (%)": "-3.917"}
{"smiles": "N#C[C@@H]1[C@@H](c2ccccc2-c2ccc(F)cc2)[C@H](CO)N1C(=O)NC1CCCCC1", "Gaussia minus Italica difference (%)": "-7.652"}
{"smiles": "COc1cccc(-c2ccc3c(c2)[C@@H]2[C@@H](CCN2C(=O)C2CCCCC2)[C@H](CO)N3)c1", "Gaussia minus Italica difference (%)": "20.67"}

Once more, the final 3:

* O=C(c1ccc2c(c1)OCO2)N1CC2(C1)[C@H](c1ccccc1)[C@H](CO)N2C(=O)C1CCC1 : Gaussia minus Italica difference -3.917%
* N#C[C@@H]1[C@@H](c2ccccc2-c2ccc(F)cc2)[C@H](CO)N1C(=O)NC1CCCCC1 : Gaussia minus Italica difference -7.652%
* COc1cccc(-c2ccc3c(c2)[C@@H]2[C@@H](CCN2C(=O)C2CCCCC2)[C@H](CO)N3)c1 : Gaussia minus Italica difference 20.67%